The values that follow come from patent US20220144911A1.

For assay [1], the target named is RhCMVIL10 (rhesus cytomegalovirus (printed as RhCMV)). Briefly: SPR.
Assay [2] shares this target. The assay is described as follows: SPR sensorgrams.

Results are given in words; binding and its absence hold for the method and conditions named. Binding can be weak; no strength is given. Where a sequence is shown, tags or fusion partners need not be part of it.

B1: RhIL10R1-FC-SLS (Fc fusion)
chain: AHGTELPSPPSVWFEAEFFHHILHWTPIPNQSESTCYEVALLRYGTGRWNSISNCSQALSYDLTAVTLDLYRSNGYWARVRAVDGSRHSNWTVTNTRFSLDEVTLTVGSVKLEIHNGFILGKIQPPRPKMAPANDTYESIFRHFREYEIAIRKVPGNFTFTHKKVKHENFSLLTSGEVGEFCVQVKPSVTSRTNKGMWSKEECVSLTRQYFTVTNVGSGGGGPSVFLFPPKPKDTLMISRTPEVTCVVVDVSQEDPDVKFNWYVNGAEVHHAQTKPRETQYNSTYRVVSVLTVTHQDWLNGKEYTCKVSNKALPAPIQKTISKDKGQPREPQVYTLPPSREELTKNQVSLTCLVKGFYPSDIVVEWESSGQPENTYKTTPPVLDSDGSYFLYSKLTVDKSRWQQGNVFSCSVMHEALHNHYTQKSLSLSGGCGTPGK
B1: the binding entry in assay [1] and in assay [2] was “binds” each time.
